US20030180396A1, “Method of effecting phosphorylation in eucaryotic cells using thiamine triphosphate” (INSTITUT PASTEUR, priority 1999, published 2003)

System: TTP-dependent kinase(s) (TTP-kinase, TTP-43K-kinase)
Assay: TTP-dependent phosphorylation of 43K rapsyn by endogenous kinase(s) in nAChR-rich postsynaptic membranes
Type: biochemical, Torpedo marmorata
Details: 200 nM
Protocol: nAChR-rich postsynaptic membranes (nAChR-membranes) were prepared from electric organs excised from freshly killed Torpedo marmorata (T.m.) (Biologie Marine, Arcachon) (3, 16).
[γ-^32P]-TTP (^32P-TTP) was synthesized (27). nAChR-membranes were phosphorylated with (7-8000 Ci/mol) ^32P-TTP or ^32P-ATP in 50 mM Tris-HCl pH 7.5, 5-15 mM MgCl2, 0.08% CHAPS, inhibitors of proteases at 4°-20° C. for 60-90 minutes. […] Coomassie blue staining was performed when necessary. Where specified, nAChR-membranes were treated with 5-20 mM diethylpyrocarbonate (DEPC.) (28) in 50 mM Na phosphate buffer pH 6.0 and 7.4 (20 min, 16° C.), prior to incubation with ^32P-TTP.
A purified extract containing the kinase responsible for the TTP dependent phosphorylation of histidine residues on rapsyn, is preincubated with increasing concentration of products inhibiting the enzymatic activity of said kinase (FIG. 3A).

CN[C@@H]1C[C@H]2O[C@@](C)([C@@H]1OC)n1c3ccccc3c3c4c(c5c6ccccc6n2c5c31)C(=O)NC4 [staurosporine] was tested, and the “% inhibition of TTP-kinase” value was 33±3%.
